Data from paper PMC12746154.
For at least one entry, the source does not settle the construct or the ends of the probe. Results from cells or extracts need not show a direct contact.

Protein sequences, listed by entry. Tags and fused reporters are not part of them. Residues count along the entry.
UniProt Q9NZQ7, 19-290: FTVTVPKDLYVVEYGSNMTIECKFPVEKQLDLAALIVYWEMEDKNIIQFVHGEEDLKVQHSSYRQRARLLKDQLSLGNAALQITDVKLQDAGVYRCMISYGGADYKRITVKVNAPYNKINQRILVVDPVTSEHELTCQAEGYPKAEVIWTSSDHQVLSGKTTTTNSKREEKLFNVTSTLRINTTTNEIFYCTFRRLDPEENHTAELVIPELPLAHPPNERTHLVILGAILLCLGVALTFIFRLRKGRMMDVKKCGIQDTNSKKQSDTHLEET
UniProt Q13308, 31-1070: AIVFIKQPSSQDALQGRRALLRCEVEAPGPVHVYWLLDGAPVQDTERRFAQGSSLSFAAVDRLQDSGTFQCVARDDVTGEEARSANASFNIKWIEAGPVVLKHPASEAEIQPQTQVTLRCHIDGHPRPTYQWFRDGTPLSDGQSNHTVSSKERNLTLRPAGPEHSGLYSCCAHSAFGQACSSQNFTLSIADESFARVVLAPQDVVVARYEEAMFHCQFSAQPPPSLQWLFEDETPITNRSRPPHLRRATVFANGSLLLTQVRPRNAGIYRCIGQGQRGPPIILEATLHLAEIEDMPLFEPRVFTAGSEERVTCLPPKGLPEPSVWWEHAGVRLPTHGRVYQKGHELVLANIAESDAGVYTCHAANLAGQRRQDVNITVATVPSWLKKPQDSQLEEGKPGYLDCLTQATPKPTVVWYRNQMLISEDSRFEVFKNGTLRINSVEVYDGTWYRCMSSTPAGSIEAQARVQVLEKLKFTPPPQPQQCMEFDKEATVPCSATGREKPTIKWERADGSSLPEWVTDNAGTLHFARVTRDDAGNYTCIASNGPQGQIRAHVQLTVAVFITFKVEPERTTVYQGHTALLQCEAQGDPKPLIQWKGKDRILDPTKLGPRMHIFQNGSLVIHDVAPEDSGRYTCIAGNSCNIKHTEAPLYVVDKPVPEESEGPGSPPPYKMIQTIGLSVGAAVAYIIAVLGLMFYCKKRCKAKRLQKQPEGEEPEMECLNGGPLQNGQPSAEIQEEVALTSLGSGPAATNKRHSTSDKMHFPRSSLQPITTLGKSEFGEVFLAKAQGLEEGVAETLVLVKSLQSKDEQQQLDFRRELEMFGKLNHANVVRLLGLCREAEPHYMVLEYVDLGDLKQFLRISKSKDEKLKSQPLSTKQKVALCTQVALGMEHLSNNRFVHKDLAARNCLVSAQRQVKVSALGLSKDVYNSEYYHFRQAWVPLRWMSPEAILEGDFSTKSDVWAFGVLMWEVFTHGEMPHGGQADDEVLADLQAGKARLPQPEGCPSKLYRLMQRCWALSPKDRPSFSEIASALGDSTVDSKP

Assays:
PD-L1 on H460 cells = PD-L1 on H460 cells (UniProt Q9NZQ7); assay: flow cytometry; conditions: H460 cells, value only in figure, Flow cytometry on live cells, HCT116 (Sgc8) at 4 °C, protein on the cell surface, label: Cy5, folded or branched DNA
PTK7 on HCT116 cells = PTK7 on HCT116 cells (UniProt Q13308); assay: flow cytometry; conditions: HCT116 cells, 4 °C, value only in figure, Flow cytometry on live cells, HCT116 (Sgc8) at 4 °C, protein on the cell surface, label: FAM, folded or branched DNA

**Q.** Does “TACAGGTTCTGGGGGGTGGGTGGGGAACCTGTT [Mj5c-DBCO]” bind (PD-L1 on H460 cells; apparent Kd, 5'-DBCO)?
**A.** Result: binds

**Q.** Does “TACAGGTTCTGGGGGGTGGGTGGGGAACCTGTT [Mj5c-PEG24]” bind (PD-L1 on H460 cells; Kd comparable to Mj5c-DBCO, 5'-DBCO clicked to azide-mPEG24)?
**A.** Result: binds

**Q.** Does “TACAGGTTCTGGGGGGTGGGTGGGGAACCTGTT [Mj5c-PID]” bind (PD-L1 on H460 cells; Kd comparable to Mj5c-DBCO, 5'-DBCO clicked to azide-PID)?
**A.** Result: binds

**Q.** Does “TACAGGTTCTGGGGGGTGGGTGGGGAACCTGTT [Mj5c-IMZ]” bind (PD-L1 on H460 cells; Kd comparable to Mj5c-DBCO, 5'-DBCO clicked to azide-IMZ)?
**A.** Result: binds

**Q.** Does “TACAGGTTCTGGGGGGTGGGTGGGGAACCTGTT [Mj5c-DEA]” bind (PD-L1 on H460 cells; Kd comparable to Mj5c-DBCO, 5'-DBCO clicked to azide-DEA (dimethylethanamine))?
**A.** Result: binds

**Q.** Does “TACAGGTTCTGGGGGGTGGGTGGGGAACCTGTT [Mj5c-MOR]” bind (PD-L1 on H460 cells; Kd comparable to Mj5c-DBCO, 5'-DBCO clicked to azide-MOR (morpholine))?
**A.** Result: binds

**Q.** Does “ATCTAACTGCTGCGCCGCCGGGAAAATACTGTACGGTAGA [Sgc8-MOR]” bind (PTK7 on HCT116 cells; Kd comparable to Sgc8-DBCO, 5'-DBCO clicked to azide-MOR (morpholine))?
**A.** Result: binds

**Q.** Does “TACAGGTTCTGGGGGGTGGGTGGGGAACCTGTT [Mj5c-PYD]” bind (PD-L1 on H460 cells; Kd comparable to Mj5c-DBCO, 5'-DBCO clicked to azide-PYD)?
**A.** Result: binds

**Q.** Does “TACAGGTTCTGGGGGGTGGGTGGGGAACCTGTT [Mj5c-PEG4]” bind (PD-L1 on H460 cells; Kd comparable to Mj5c-DBCO, 5'-DBCO clicked to azide-mPEG4)?
**A.** Result: binds

**Q.** Does “TACAGGTTCTGGGGGGTGGGTGGGGAACCTGTT [Mj5c-PEG14]” bind (PD-L1 on H460 cells; Kd comparable to Mj5c-DBCO, 5'-DBCO clicked to azide-mPEG14)?
**A.** Result: binds

**Q.** Does “ATCTAACTGCTGCGCCGCCGGGAAAATACTGTACGGTAGA [Sgc8-DBCO]” bind (PTK7 on HCT116 cells; apparent Kd, 5'-DBCO)?
**A.** Result: binds

**Q.** Does “TACAGGTTCTGGGGGGTGGGTGGGGAACCTGTT [Mj5c-PEG3]” bind (PD-L1 on H460 cells; Kd comparable to Mj5c-DBCO, 5'-DBCO clicked to azide-mPEG3)?
**A.** Result: binds
